Results deposited as PubChem BioAssay AID1259308 (NCATS, 2017)
In all, the deposit lists about 59,000 reagents; this is a part drawn at random. About 1,510 of all reagents (2.6%) count as active. 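Calls use total luciferase alone and ignore viability, so some active siRNAs may act by altering cell number.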 The numbers tell different reagents against one gene apart. Further read-outs or replicates are left out here.

Aim: 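Genes whose loss raises luciferase production in HEK293 cells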 (primary screen)
Cell system: human HEK293 embryonic kidney cells stably expressing firefly luciferase (HEK-CMV-Luc2-Hygro)
Reagent: single siRNA against human genes, 0.8 pmol siRNA per well
Timing: 72 h
Detection: 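Luciferase light (ONE-Glo) measured on one replicate plate set and viability (CellTiter-Glo) on the other, scaled to a negative control siRNA, with robust z-scores and luciferase per cell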
Direction: total luciferase, z-score and total luciferase, % of control: higher = more reporter protein produced
Rule for the call: 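An siRNA counts as active if its total luciferase robust z-score exceeds 3; genes with two or more such siRNAs out of three were retested with fresh siRNAs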
Calls: active = raised luciferase; inactive = no rise

HS6ST3 #1
- total luciferase, z-score: 1.8
- total luciferase, % of control: 118
- activity call: inactive

HS6ST3 #2
- total luciferase, z-score: 1.01
- total luciferase, % of control: 102
- activity call: inactive

HS6ST3 #3
- total luciferase, z-score: 0.0759
- total luciferase, % of control: 83.4
- activity call: inactive

NAA20 #1
- total luciferase, z-score: 1.6
- total luciferase, % of control: 114
- activity call: inactive

NAA20 #2
- total luciferase, z-score: 0.221
- total luciferase, % of control: 86.3
- activity call: inactive

NAA20 #3
- total luciferase, z-score: 0.215
- total luciferase, % of control: 86.2
- activity call: inactive

GPR157 #1
- total luciferase, z-score: 0.807
- total luciferase, % of control: 97.9
- activity call: inactive

GPR157 #2
- total luciferase, z-score: 1.12
- total luciferase, % of control: 104
- activity call: inactive

GPR157 #3
- total luciferase, z-score: 0.102
- total luciferase, % of control: 83.9
- activity call: inactive

PALB2 #1
- total luciferase, z-score: 0.0933
- total luciferase, % of control: 83.7
- activity call: inactive

PALB2 #2
- total luciferase, z-score: 0.132
- total luciferase, % of control: 84.5
- activity call: inactive

PALB2 #3
- total luciferase, z-score: 1.86
- total luciferase, % of control: 119
- activity call: inactive

2 consecutive entries already listed:
HS6ST3 #3
- total luciferase, z-score: 0.0759
- total luciferase, % of control: 83.4
- activity call: inactive

NAA20 #1
- total luciferase, z-score: 1.6
- total luciferase, % of control: 114
- activity call: inactive
